“And” between values parts separate entries of the source, which are not always exact repeats. Identical values can stand only once. The list shows a part of the results. These are further read-outs of the screen, such as a control signal, another cell line or another target. No call is given for them. Compounds called inactive in the main read-out are mostly missing here. Potencies come from curve fits of mixed quality, noted in brackets.
Experiment: qHTS Assay for Modulators of Lamin A Splicing
Conditions: HeLa LMNA splicing GFP/RFP minigene ratio, 48 h
Method in brief: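 S3 HeLa stable clones carrying a lamin A-EGFP splicing minigene plus DsRed2 were seeded at 600 cells/well in Opti-MEM with 2% FBS, pin-dosed and incubated 48 h at 37°C. Acumen cytometry (488 nm) gave the GFP/RFP total-intensity ratio.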

[1] = measured here: GFP splicing reporter channel
[2] = measured here: RFP viability control channel

| SMILES | AC50 [1] | AC50 [2] |
| --- | --- | --- |
| CCCC1C(C(=O)OCC)=C(C)NC(C)=C1C(=O)OCC | 7.08 µM [rising, partial curve, poor fit] | 17.8 µM [rising, single point] |
| N#Cc1nc(-c2ccc(COc3ccccc3)o2)oc1NCc1ccccc1 | – | 3.98 µM [falling, full curve, poor fit] |
| COc1ccc(-c2oc3cc(O[C@@H]4OC(CO)C(O)C(O)C4O)c(OC)c(O)c3c(=O)c2OC)cc1O (stereo partly drawn) | 35.5 µM [falling, single point] | 7.08 µM [falling, single point] |
| O=C(CN1CCN(c2ccc(O)cc2)CC1)Nc1ccc(SC(F)F)cc1 | – | 7.94 µM [rising, partial curve, poor fit] |
| Cc1nc2ccccc2n1CCc1nc2c3ccccc3nc(SCC(=O)Nc3ccc(Br)cc3F)n2n1 | – | 35.5 µM [falling, single point] |
| CC(=O)Nc1ccc(C2=NN(Cc3nnc(-c4ccccc4)o3)C(=O)SC2)cc1 | – | 15.8 µM [rising, single point] |
| O=C(Nc1ccccc1)c1cc([N+](=O)[O-])ccc1Cl | 1.41 µM [rising, full curve, poor fit] | 11.2 µM [rising, partial curve] |
| Cc1cccc(-c2nsc(SCC(=O)c3ccc(Cl)cc3)n2)c1 | – | 35.5 µM [rising, single point] |
| CC(Oc1ccc(Cl)cc1)C(=O)NNC(=S)NC(=O)c1ccco1 (stereo not drawn) | – | 1 µM [rising, full curve, poor fit] |
| COc1ccccc1NC(=O)c1c(NCc2ccc(C)o2)sc2c1CCC(C)C2 (stereo not drawn) | 25.1 µM [falling, partial curve, poor fit] | – |
| CCOC(=O)c1c(C)n(CC(O)c2ccccc2)c2ccc(O)cc12 (stereo not drawn) | – | 10 µM [rising, partial curve] |
| Cc1onc(-c2ccccc2)c1C(=O)N/N=C/c1cc2c(cc1Cl)OCO2 | 15.8 µM [rising, partial curve, poor fit] | 35.5 µM [rising, single point] |
| N#CCC(=O)N/N=C/c1ccc(SCC(=O)Nc2ccccc2)o1 | 0.00398 µM [rising, full curve, poor fit] | 20 µM [rising, partial curve, poor fit] |
| COc1ccc(N2CCN(C3CC(=O)N(C)C3=O)CC2)cc1 (stereo not drawn) | 35.5 µM [rising, single point] | 35.5 µM [rising, single point] |
| CCCC(=O)C1=C(O)C(C(=O)OC)C(C)(C)CC1=Nc1cccc2ccccc12 (stereo not drawn) | – | 35.5 µM [rising, single point] |
| CC(C)COc1ccc(S(=O)(=O)n2cc(F)c(=O)[nH]c2=O)cc1 | 1.78 µM [falling, partial curve, poor fit] | – |
| O=C(NNc1ccc(Cl)cc1)c1cccs1 | 0.01 µM [rising, full curve, poor fit] | – |
| CCC(Sc1nnnn1-c1ccccc1)C(=O)Nc1nc2ccccc2s1 (stereo not drawn) | – | 35.5 µM [rising, single point] |
| CSc1nsc(/C=C/Nc2ccc(F)cc2F)c1C#N | 39.8 µM [falling, partial curve, poor fit] | – |
| COc1ccc(S(=O)(=O)c2c(Nc3ccc(F)cc3)sc(C(=O)c3ccc4c(c3)OCO4)c2N)cc1 | 10 µM [rising, partial curve, poor fit] | 8.91 µM [rising, partial curve, poor fit] |
| CN(NS(=O)(=O)c1ccc(F)cc1)c1ncc(C(F)(F)F)cc1Cl | 0.0251 µM [rising, full curve] | – |
| Cn1cccc1/C=C(/C#N)C(N)=S | 0.251 µM [rising, full curve, poor fit] | 0.251 µM [rising, full curve] |
| C[N+]1(CCCCC[N+]2(C)CCCC2)CCCC1 | 14.1 µM [falling, single point] and 6.31 µM [falling, partial curve, poor fit] | – |
| CC(C)C(=O)NC(=S)Nc1ccccn1 | – | 7.94 µM [rising, partial curve] |
| O=C(Nc1ccc(F)cc1F)N1CCCN(c2ccc([N+](=O)[O-])cn2)CC1 | – | 3.55 µM [falling, partial curve, poor fit] |
| CC(C)(O)C1Cc2cc(/C=C/C(=O)O)c(O)cc2O1 (stereo not drawn) | 1.41 µM [rising, full curve, poor fit] | – |
| COCCn1nnnc1C(c1ccccc1Cl)N1CCN(c2ccccc2OC)CC1 (stereo not drawn) | – | 14.1 µM [rising, partial curve] |
| O=C(/C=C/c1ccc(Cl)cc1Cl)N(Cc1ccc(Cl)cc1)C1CCS(=O)(=O)C1 (stereo not drawn) | – | 12.6 µM [rising, single point] |
| CN1CCc2c(c3ccccc3n2Cc2ccccc2)C1 | – | 0.355 µM [rising, full curve, poor fit] |
| CCc1ccc(S(=O)(=O)Nc2cccc(-c3ccc(OC)nn3)c2)s1 | 3.98 µM [falling, partial curve, poor fit] | – |

Reference: PubChem BioAssay AID1487 (National Center for Advancing Translational Sciences (NCATS), 2009)
